The values that follow come from US20090275648A1, “MACROCYCLIC GHRELIN RECEPTOR ANTAGONISTS AND INVERSE AGONISTS AND METHODS OF USING THE SAME” (priority 2005, published 2009).

By UniProt entry, the sequences of proteins in these tests, tags left out.
UniProt Q92847, whole entry: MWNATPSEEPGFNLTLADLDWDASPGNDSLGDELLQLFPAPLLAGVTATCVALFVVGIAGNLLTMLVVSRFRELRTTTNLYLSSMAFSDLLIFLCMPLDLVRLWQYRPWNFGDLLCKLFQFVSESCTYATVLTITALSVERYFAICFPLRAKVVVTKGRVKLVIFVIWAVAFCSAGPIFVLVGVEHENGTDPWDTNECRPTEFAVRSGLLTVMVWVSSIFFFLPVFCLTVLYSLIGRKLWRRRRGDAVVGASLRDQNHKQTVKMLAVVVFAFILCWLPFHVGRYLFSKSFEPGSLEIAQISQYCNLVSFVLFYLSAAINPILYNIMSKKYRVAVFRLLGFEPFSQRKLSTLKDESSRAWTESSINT

Molecules are shown by their SMILES. The structures given here were assigned with low confidence; some may be wrong.

The target in experiment [1] is human ghrelin receptor (hGHS-R1a) (Homo sapiens, UniProt Q92847). Briefly: Competitive radioligand binding assay (ghrelin receptor), [125I]-ghrelin, GHS-R/HEK 293 membranes. Conditions: read-out: Activity (Ki,), competition with [125I]-ghrelin.
The target of experiment [2] is ghrelin receptor (Homo sapiens, UniProt Q92847). The experiment in a line: Aequorin functional assay (ghrelin receptor), Example 3. Conditions: read-out: Activity (IC50); antagonist testing vs ghrelin at EC80 (3.7 nM).

With `CCC(C)[C@@H]1NCCOc2ccccc2/C=C\CNC(=O)[C@@H](Cc2ccccc2)NC(=O)[C@H](C(C)O)N(C)C1=O` (some centres unmarked), the inhibitory constant (Ki) in experiment [1] lay within 100 to 1000 nM. Besides, the IC50 in experiment [2] was > 1500 nM.
